Test results as given in PubChem BioAssay AID2517 (National Center for Advancing Translational Sciences (NCATS), 2010).
The campaign covered roughly 350,000 compounds. About 1,200 (0.34%) were called active. This list was built around the results that the source calls inconclusive (neither active nor inactive); the mix of calls is not that of the screen. Calls come from the whole dose curve; as a rule, active = well fitted inhibition curve with a large enough effect; inconclusive = small, poorly fitted or top-dose-only effect; inactive = no such curve, though single readings can be large or run the other way. A potency beside an inconclusive call is a rough fit, not a confirmed value.

Amino acid sequences for entries named in this document (tags omitted).
UniProt P27695, whole entry, looked up: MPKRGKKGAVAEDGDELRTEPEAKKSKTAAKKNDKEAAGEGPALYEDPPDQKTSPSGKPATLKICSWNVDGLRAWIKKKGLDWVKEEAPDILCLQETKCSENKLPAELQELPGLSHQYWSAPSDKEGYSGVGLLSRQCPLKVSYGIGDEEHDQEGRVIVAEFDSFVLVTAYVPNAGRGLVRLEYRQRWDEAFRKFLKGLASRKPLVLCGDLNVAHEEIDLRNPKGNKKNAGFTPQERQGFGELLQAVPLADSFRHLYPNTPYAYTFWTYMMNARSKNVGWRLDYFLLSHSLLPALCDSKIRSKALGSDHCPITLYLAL

biological target: DNA repair nuclease/redox regulator APEX1 (Homo sapiens) (UniProt P27695); experiment: qHTS Assay for Inhibitors of the Human Apurinic/apyrimidinic Endonuclease 1 (APE1); conditions: recombinant APE1, TAMRA/BHQ-2 abasic DNA cleavage fluorescence; activity change, negative = inhibition: at 65.8 µM (top of the series); note: nearly all actives have a fitted effect of over 55% in size;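 for activity change, negative = inhibition: plate controls were vehicle for no effect and reference inhibitor for full effect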
In short: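 Step 1: APE1 (0.75 nM) with compound, 15 min RT. Step 2: add 50 nM fluorophore/quencher THF duplex. Step 3: three fluorescence reads 60 s apart (525/598 nm); read 3 minus read 1 = reaction progress.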
Potency is the fitted concentration of half-maximal effect.

SMILES | Potency | activity change, negative = inhibition
CC(=O)Nc1nc2ccccc2n1CCOc1ccccc1 | inactive | –
CCCCNS(=O)(=O)c1cc(-c2nn(C)c(=O)c3ccccc23)ccc1C | inconclusive: 26.7 µM [inhibitor, single point] | –
Nc1ncnc2c1c(I)cn2C1OC(CO)C(O)C1O (configuration not stated) | inactive | –
O=C(CCNS(=O)(=O)c1cccc2nsnc12)N1CC(=O)N(CCc2ccccc2)C(=O)C1 | inconclusive: 44.7 µM [inhibitor, single point] | –
N[C@](CC1c2ccccc2Oc2ccccc21)(C(=O)O)[C@@H]1C[C@@H]1C(=O)O | inactive | –
O=c1[nH]nc(CNc2ccc(O)cc2)c2ccccc12 | inconclusive: 20 µM [inhibitor, partial curve] | –
CC(=C\C(=O)O)/C(=C/c1ccc(C)o1)C(=O)O | inconclusive: 10 µM [inhibitor, partial curve] | –
O=C(CCCN1C(=O)c2ccccc2C1=O)Nc1cccnc1 | inconclusive: 17.8 µM [inhibitor, single point] | –
COc1ccc(Cl)cc1NC(=S)N1CCC(c2ccc(C)cc2)C1 (configuration not stated) | inconclusive: 22.4 µM [inhibitor, single point] | –
CC(C)(C)c1ccc(-c2nc3n(c(=O)c2C#N)CCS3)cc1 | inconclusive: 7.94 µM [inhibitor, single point] | –
O=C(COC(=O)CCC(=O)c1ccc(F)cc1)Nc1cccc(S(=O)(=O)N2CCOCC2)c1 | inconclusive: 39.8 µM [inhibitor, single point] | –
CNCC[C@@H](Oc1ccccc1C)c1ccccc1 | inconclusive: 50.1 µM [inhibitor, partial curve] | –
COc1ccccc1-n1cnc2c(c1=O)c1nc3ccccc3nc1n2-c1ccc(C)cc1 | inactive | –
O=S(=O)(Nc1cccc(CCc2ccccn2)c1)c1cc(Cl)ccc1Cl | inconclusive: 5.01 µM [inhibitor, single point] | –
Cc1ccc(-n2nc(C)c3c(C)c(CCC(=O)NCc4ccco4)c(C)nc32)cc1 | inconclusive: 15.8 µM [inhibitor, single point] | –
C/C(CC(=O)NC12CC3CC(CC(C3)C1)C2)=N\NC(=O)Cc1cccs1 | inconclusive: 10 µM [inhibitor, partial curve, poor fit] | –
c1nc(NCc2ccc3c(c2)OCO3)c2cc(-c3ccc4c(c3)OCCO4)ccc2n1 | inactive | –
CCOC(=O)CCN1C(=O)[C@H]2[C@H]3[C@H](O)[C@H](O)C/C(=N/OC/C=C(\C)CCC=C(C)C)[C@@H]3CC[C@@H]2C1=O | – | inactive: 24.8% [at 12.4 µM]
Cc1cccn2c(=O)c3cc(C(=O)NC4CCCCC4)c(=N)n(Cc4ccccc4)c3nc12 | active: 9.47 µM | –
CCCc1nn(C)c2c(=O)[nH]c(-c3ccccc3OCC)nc12 | inactive | –
Cc1c(CCC(=O)O)c(=O)oc2cc(O)ccc12 | inactive | –
CC(=O)Nc1ccc(OCCCNC(=O)c2c(-c3ccccc3)noc2C)cc1 | inconclusive: 2.82 µM [inhibitor, single point] | –
Cc1ccc(C)n1/N=C1/NC(=O)CS1 | inconclusive: 39.8 µM [inhibitor, single point] | –

SMILES | Potency | activity change, negative = inhibition
COc1ccc(S(=O)(=O)N2CC(O)CC2C(=O)OCc2nc3sc(C)c(C)c3c(=O)[nH]2)cc1 (configuration not stated) | inconclusive: 22.4 µM [inhibitor, partial curve, poor fit] | –
CC(=O)c1sc2nc(SCC(=O)N3CCCCC3)[nH]c(=O)c2c1C | inconclusive: 35.5 µM [inhibitor, single point] | –
CN1CCc2c(sc3nc(SCC(=O)N4CCOCC4)nc(N)c23)C1 | inconclusive: 44.7 µM [inhibitor, single point] | –
COc1cccc(NC(=O)CN(C)CC(=O)NCc2ccco2)c1 | inactive | –
COc1cccc(Sc2cc(N3CCOCC3)nc(-c3ccccc3)n2)c1 | inconclusive: 0.631 µM [inhibitor, full curve, poor fit] | –
Nc1nc(COc2ccccc2C=O)nc(Nc2ccccc2)n1 | inconclusive: 1 µM [inhibitor, full curve, poor fit] | –
CCOc1ccc(OCCNC2CCCC2)cc1 | inconclusive: 20 µM [inhibitor, partial curve, poor fit] | –
CC(C)(C)Nc1oc(-c2ccccc2)nc1-c1ccccc1 | inactive | –
Cc1oc2c(C)c3oc(=O)c(CCC(=O)O)c(C)c3cc2c1-c1ccccc1 | inconclusive: 29.9 µM [inhibitor, single point] | –
CCN1CCN(C(=O)Cn2ncc3c2-c2ccccc2OC3)CC1 | inconclusive: 8.91 µM [inhibitor, single point] | –
O=C1NC(=Nc2ccccc2)S/C1=C/c1cccs1 | inconclusive: 39.8 µM [inhibitor, single point] | –
C=CCc1cccc(CNc2nc3ccccc3n2CCN2CCOCC2)c1O | inconclusive: 5.62 µM [inhibitor, single point] | –
Nc1nc(NCc2ccco2)nc(Nc2ccccc2)c1[N+](=O)[O-] | inconclusive: 7.94 µM [inhibitor, single point] | –
Cc1oc2cc([N+](=O)[O-])c(O)c([N+](=O)[O-])c2c1C(=O)c1ccc(Br)cc1 | inconclusive: 25.1 µM [inhibitor, single point] | –
Cc1cc2c3ccccc3ncn2n1 | inconclusive: 3.55 µM [inhibitor, single point] | –
COc1ccccc1N1CCN(C(=O)CSc2nnc(NC(=O)C3CC3)s2)CC1 | inconclusive: 28.2 µM [inhibitor, partial curve, poor fit] | –
O=C(CC1SC(N2CCOCC2)=NC1=O)Nc1cc([N+](=O)[O-])ccc1Cl (configuration not stated) | inconclusive: 4.47 µM [inhibitor, partial curve, poor fit] | –
CC1CCC(O)C/C1=C\C=C1/CCCC2(C)C1CCC2C(C)/C=C/C(C)C(C)C (configuration not stated) | inactive | –
CCN(CC(=O)NC1CCS(=O)(=O)C1)S(=O)(=O)c1ccc(Br)cc1 (configuration not stated) | inconclusive: 5.32 µM [inhibitor, single point] | –
COc1ccc(C(=O)Nc2cc(C)nn2-c2ccc(C)cc2)cc1 | inactive | –
C=CC[C@@H](CC(=O)NCCO)C(=O)N[C@@H](C)COC(=O)[C@H](CC=C)CC(=O)OC(C)(C)C | inactive | –
CCOC(=O)N1CCN(C(=O)/C(=C\c2ccc(SC)cc2)NC(=O)c2ccccc2)CC1 | inconclusive: 10 µM [inhibitor, single point] | –
COc1ccc(NC(=O)CCSc2ccc(F)cc2)cc1 | inconclusive: 15.8 µM [inhibitor, partial curve] | –

Some of these compounds in order of length of the SMILES, low to high.
SMILES | Potency | activity change, negative = inhibition
CC(C)(C)Nc1oc(-c2ccccc2)nc1-c1ccccc1 | inactive | –
COc1ccc(C(=O)Nc2cc(C)nn2-c2ccc(C)cc2)cc1 | inactive | –
CCN(CC(=O)NC1CCS(=O)(=O)C1)S(=O)(=O)c1ccc(Br)cc1 (configuration not stated) | inconclusive: 5.32 µM [inhibitor, single point] | –

Remaining list, next part.

SMILES | Potency | activity change, negative = inhibition
Oc1ccc(/C=N/Nc2nc(-c3ccccc3F)nc3ccccc23)c(O)c1 | inconclusive: 39.8 µM [inhibitor, single point] | –
CCCCNc1nc2c(c(=O)n(C)c(=O)n2C)n1CCC | inconclusive: 0.0631 µM [inhibitor, full curve, poor fit] | –
Cc1csc(NC(=O)/C=C/c2ccc(C)o2)n1 | inconclusive: 10 µM [inhibitor, full curve, poor fit] | –
CCOC(=O)/C=C1/N(C)c2ccccc2C1(C)C | inactive | –
CN(C)S(=O)(=O)c1cccc(NC(=S)N/N=C/c2ccc(O)c(O)c2O)c1 | inconclusive: 0.708 µM [inhibitor, full curve, poor fit] | –
Cc1ccccc1CSc1n[nH]c(NS(=O)(=O)c2ccccc2)n1 | inconclusive: 0.891 µM [inhibitor, full curve] | –
COc1ccc(C(=O)OCC(=O)Nc2ccc(N3CCOCC3)cc2)cc1OC | inconclusive: 29.9 µM [inhibitor, single point] | –
CC(Cc1ccc(O)c(O)c1)C(C)Cc1ccc(O)c(O)c1 (configuration not stated) | inconclusive: 31.6 µM [inhibitor, partial curve] | –
O=C(COC(=O)C1CC1)Nc1ncc(Cl)cc1Cl | inactive | –
COc1ccc(-c2cc(C(=O)OCC(=O)c3c(N)n(C)c(=O)n(C)c3=O)c3ccccc3n2)cc1 | inactive | –
c1ccc2c(c1)Nc1ccncc1S2 | inconclusive: 3.16 µM [inhibitor, partial curve] | –
Cc1[nH]nc2c1C(=O)CC(C)(C)C2 | inconclusive: 3.16 µM [inhibitor, single point] | –
COc1ccc(OC)c(Nc2nc(NCCCN(C)C)nc(N)c2[N+](=O)[O-])c1 | inconclusive: 39.8 µM [inhibitor, single point] | –
CC(=O)OCC1=C(C(=O)O)N2C(=O)C(NC(=O)c3ccc(COc4cccc(Cl)c4Cl)o3)C2SC1 (configuration not stated) | inactive | –
O=C(C1CCC(CNS(=O)(=O)c2cccc3nsnc23)CC1)N1CC=C(c2ccccc2)CC1 (configuration not stated) | inconclusive: 8.91 µM [inhibitor, partial curve] | –
Cc1nc2nc[nH]n2c(=O)c1NC(=O)c1c(-c2ccccc2Cl)noc1C | inconclusive: 3.16 µM [inhibitor, partial curve] | –
O=C(CN1CCN(c2ccc(O)cc2)CC1)NC1CCCc2ccccc21 (configuration not stated) | inconclusive: 3.98 µM [inhibitor, single point] | –
CCn1c(O)c(C=Nc2ccccc2)sc1=S | inconclusive: 17.8 µM [inhibitor, partial curve] | –
Cn1c2cc(B(O)O)sc2c2cnn(Cc3c(F)cccc3F)c(=O)c21 | active: 21.2 µM | –
COc1ccc(/C=C(/C(=O)N2CCCCC2C(=O)O)c2ccc(OC)c(OC)c2)cc1 (configuration not stated) | inactive | –
CCc1ccc(NS(=O)(=O)c2ccc3[nH]cc(C(=O)N(C)Cc4ccco4)c(=O)c3c2)cc1 | inconclusive: 28.2 µM [inhibitor, partial curve] | –

Look-ups from the list:
In Potency, `Oc1ccc(/C=N/Nc2nc(-c3ccccc3F)nc3ccccc23)c(O)c1` has the entry inconclusive: 39.8 µM [inhibitor, single point]
In Potency, `CCn1c(O)c(C=Nc2ccccc2)sc1=S` has the entry inconclusive: 17.8 µM [inhibitor, partial curve]
In Potency, `O=C(C1CCC(CNS(=O)(=O)c2cccc3nsnc23)CC1)N1CC=C(c2ccccc2)CC1` (configuration not stated) has the entry inconclusive: 8.91 µM [inhibitor, partial curve]
